# Assay results: the supplement of paper PMC8728848
# The other results are listed elsewhere or left out.
# Columns and labels:
# Assay in all cases: glycan array binding signal (z-score within array); higher = stronger binding
# Conditions in all cases: glycan notation: IUPAC condensed, linker removed
# [1] = biological target: GlcNAc(b1-3)Gal(b1-3)GalNAc
# Method in brief: (§1)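 From the Consortium for Functional Glycomics database, 3228 arrays were curated, keeping only those whose protein sequence was available. Binding is given as a within-array Z-score averaged across arrays sharing a protein sequence and across linkers. Negative Z-scores can be read as non-binding.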
# [2] = biological target: GlcNAc(b1-3)Gal(b1-4)Glc
# Method in brief: as §1
# [3] = biological target: GlcNAc(b1-3)Gal(b1-4)GlcNAc
# Method in brief: as §1
# [4] = biological target: GlcNAc(b1-3)Gal(b1-4)GlcNAc(b1-2)Man(a1-3)[GlcNAc(b1-3)Gal(b1-4)GlcNAc(b1-2)Man(a1-6)]Man(b1-4)GlcNAc(b1-4)GlcNAc
# Method in brief: as §1
# [5] = biological target: GlcNAc(b1-3)Gal(b1-4)GlcNAc(b1-2)Man(a1-3)[GlcNAc(b1-3)Gal(b1-4)GlcNAc(b1-2)Man(a1-6)]Man(b1-4)GlcNAc(b1-4)[Fuc(a1-6)]GlcNAc
# Method in brief: as §1
# [6] = biological target: GlcNAc(b1-3)Gal(b1-4)GlcNAc(b1-2)[GlcNAc(b1-3)Gal(b1-4)GlcNAc(b1-6)]Man(a1-6)[GlcNAc(b1-3)Gal(b1-4)GlcNAc(b1-2)Man(a1-3)]Man(b1-4)GlcNAc(b1-4)GlcNAc
# Method in brief: as §1
# [7] = biological target: GlcNAc(b1-3)Gal(b1-4)GlcNAc(b1-3)Gal(b1-4)GlcNAc
# Method in brief: as §1
# [8] = biological target: GlcNAc(b1-3)Gal(b1-4)GlcNAc(b1-3)Gal(b1-4)GlcNAc(b1-2)Man(a1-3)[GlcNAc(b1-3)Gal(b1-4)GlcNAc(b1-3)Gal(b1-4)GlcNAc(b1-2)Man(a1-6)]Man(b1-4)GlcNAc(b1-4)GlcNAc
# Method in brief: as §1
# [9] = biological target: GlcNAc(b1-3)Gal(b1-4)GlcNAc(b1-3)Gal(b1-4)GlcNAc(b1-2)Man(a1-3)[GlcNAc(b1-3)Gal(b1-4)GlcNAc(b1-3)Gal(b1-4)GlcNAc(b1-2)Man(a1-6)]Man(b1-4)GlcNAc(b1-4)[Fuc(a1-6)]GlcNAc
# Method in brief: as §1
# [10] = biological target: GlcNAc(b1-3)Gal(b1-4)GlcNAc(b1-3)Gal(b1-4)GlcNAc(b1-2)[GlcNAc(b1-3)Gal(b1-4)GlcNAc(b1-3)Gal(b1-4)GlcNAc(b1-6)]Man(a1-6)[GlcNAc(b1-3)Gal(b1-4)GlcNAc(b1-3)Gal(b1-4)GlcNAc(b1-2)Man(a1-3)]Man(b1-4)GlcNAc(b1-4)[Fuc(a1-6)]GlcNAc
# Method in brief: as §1
# [11] = biological target: GlcNAc(b1-3)Gal(b1-4)GlcNAc(b1-3)Gal(b1-4)GlcNAc(b1-3)Gal(b1-4)GlcNAc(b1-2)Man(a1-3)[GlcNAc(b1-3)Gal(b1-4)GlcNAc(b1-3)Gal(b1-4)GlcNAc(b1-3)Gal(b1-4)GlcNAc(b1-2)Man(a1-6)]Man(b1-4)GlcNAc(b1-4)GlcNAc
# Method in brief: as §1
# [12] = biological target: GlcNAc(b1-3)Gal(b1-4)GlcNAc(b1-3)Gal(b1-4)GlcNAc(b1-3)Gal(b1-4)GlcNAc(b1-2)Man(a1-3)[GlcNAc(b1-3)Gal(b1-4)GlcNAc(b1-3)Gal(b1-4)GlcNAc(b1-3)Gal(b1-4)GlcNAc(b1-2)Man(a1-6)]Man(b1-4)GlcNAc(b1-4)[Fuc(a1-6)]GlcNAc
# Method in brief: as §1
# [13] = biological target: GlcNAc(b1-3)Gal(b1-4)GlcNAc(b1-3)Gal(b1-4)GlcNAc(b1-3)Gal(b1-4)GlcNAc(b1-2)[GlcNAc(b1-3)Gal(b1-4)GlcNAc(b1-3)Gal(b1-4)GlcNAc(b1-3)Gal(b1-4)GlcNAc(b1-6)]Man(a1-6)[GlcNAc(b1-3)Gal(b1-4)GlcNAc(b1-3)Gal(b1-4)GlcNAc(b1-3)Gal(b1-4)GlcNAc(b1-2)Man(a1-3)]Man(b1-4)GlcNAc(b1-4)[Fuc(a1-6)]GlcNAc
# Method in brief: as §1
# [14] = biological target: GlcNAc(b1-3)Gal(b1-4)GlcNAc(b1-3)Gal(b1-4)GlcNAc(b1-3)Gal(b1-4)GlcNAc(b1-3)Gal(b1-4)GlcNAc(b1-2)Man(a1-3)[GlcNAc(b1-3)Gal(b1-4)GlcNAc(b1-3)Gal(b1-4)GlcNAc(b1-3)Gal(b1-4)GlcNAc(b1-3)Gal(b1-4)GlcNAc(b1-2)Man(a1-6)]Man(b1-4)GlcNAc(b1-4)GlcNAc
# Method in brief: as §1
# [15] = biological target: GlcNAc(b1-3)Gal(b1-4)GlcNAc(b1-3)Gal(b1-4)GlcNAc(b1-3)Gal(b1-4)GlcNAc(b1-3)Gal(b1-4)GlcNAc(b1-2)Man(a1-3)[GlcNAc(b1-3)Gal(b1-4)GlcNAc(b1-3)Gal(b1-4)GlcNAc(b1-3)Gal(b1-4)GlcNAc(b1-3)Gal(b1-4)GlcNAc(b1-2)Man(a1-6)]Man(b1-4)GlcNAc(b1-4)[Fuc(a1-6)]GlcNAc
# Method in brief: as §1
# [16] = biological target: GlcNAc(b1-3)Gal(b1-4)GlcNAc(b1-3)Gal(b1-4)GlcNAc(b1-3)Gal(b1-4)GlcNAc(b1-3)Gal(b1-4)GlcNAc(b1-2)[GlcNAc(b1-3)Gal(b1-4)GlcNAc(b1-3)Gal(b1-4)GlcNAc(b1-3)Gal(b1-4)GlcNAc(b1-3)Gal(b1-4)GlcNAc(b1-6)]Man(a1-6)[GlcNAc(b1-3)Gal(b1-4)GlcNAc(b1-3)Gal(b1-4)GlcNAc(b1-3)Gal(b1-4)GlcNAc(b1-3)Gal(b1-4)GlcNAc(b1-2)Man(a1-3)]Man(b1-4)GlcNAc(b1-4)[Fuc(a1-6)]GlcNAc
# Method in brief: as §1
# [17] = biological target: GlcNAc(b1-3)Gal(b1-4)GlcNAc(b1-3)Gal(b1-4)GlcNAc(b1-3)GalNAc
# Method in brief: as §1
# [18] = biological target: GlcNAc(b1-3)Gal(b1-4)GlcNAc(b1-3)GalNAc
# Method in brief: as §1
# [19] = biological target: GlcNAc(b1-3)Gal(b1-4)GlcNAc(b1-3)[GlcNAc(b1-3)Gal(b1-4)GlcNAc(b1-3)]GalNAc
# Method in brief: as §1
# [20] = biological target: GlcNAc(b1-3)Gal(b1-4)GlcNAc(b1-6)[Gal(b1-3)]GalNAc
# Method in brief: as §1
# [21] = biological target: GlcNAc(b1-3)Gal(b1-4)GlcNAc(b1-6)[GlcNAc(b1-3)Gal(b1-3)]GalNAc
# Method in brief: as §1
# [22] = biological target: GlcNAc(b1-3)Gal(b1-4)GlcNAc(b1-6)[GlcNAc(b1-3)]Gal(b1-4)GlcNAc
# Method in brief: as §1
# [23] = biological target: GlcNAc(b1-3)GalNAc
# Method in brief: as §1
# [24] = biological target: GlcNAc(b1-3)Man
# Method in brief: as §1
# [25] = biological target: GlcNAc(b1-3)[GlcNAc(b1-4)][GlcNAc(b1-6)]GlcNAc
# Method in brief: as §1
# [26] = biological target: GlcNAc(b1-3)[GlcNAc(b1-6)]Gal(b1-4)GlcNAc
# Method in brief: as §1
# [27] = biological target: GlcNAc(b1-3)[GlcNAc(b1-6)]GalNAc
# Method in brief: as §1
# [28] = biological target: GlcNAc(b1-4)Gal(b1-4)GlcNAc
# Method in brief: as §1
# [29] = biological target: GlcNAc(b1-4)GlcNAc
# Method in brief: as §1
# [30] = biological target: GlcNAc(b1-4)GlcNAc(b1-4)GlcNAc
# Method in brief: as §1
# [31] = biological target: GlcNAc(b1-4)GlcNAc(b1-4)GlcNAc(b1-4)GlcNAc(b1-4)GlcNAc
# Method in brief: as §1
# [32] = biological target: GlcNAc(b1-4)GlcNAc(b1-4)GlcNAc(b1-4)GlcNAc(b1-4)GlcNAc(b1-4)GlcNAc
# Method in brief: as §1
# [33] = biological target: GlcNAc(b1-4)[GlcNAc(b1-6)]GalNAc
# Method in brief: as §1
# [34] = biological target: GlcNAc(b1-6)Gal(b1-4)GlcNAc
# Method in brief: as §1
# [35] = biological target: GlcNAc(b1-6)GalNAc
# Method in brief: as §1
# [36] = biological target: GlcNAc6S(b1-3)Gal(b1-4)GlcNAc
# Method in brief: as §1
# [37] = biological target: Kdn(a2-3)Gal(b1-3)GalNAc
# Method in brief: as §1
binder,measurement,setting,value
"ERGIC1-EDTA (Homo sapiens), Q969X5 (protein) MKFLVNVALVFMVVYISYIYAAAHMHHHHHHDYDIPTTENLYFQGSEVVNELYVDDPDKDSGGKIDVSLNISLPNLHCELVGLDIQDEMGRHEVGHIDNSMKIPLNNGAGCRFEGQFSINKVPGNFHVSTHSATAQPQNPDMTHVIHKLSFGDTLQVQNIHGAFNALGGADRLTSNPLASHDYILKIVPTVYEDKSGKQRYSYQYTVANKEYVAYSHTGRIIPAIWFRYDLSPITVKYTE",glycan array binding signal (z-score),[1],0.03
same,glycan array binding signal (z-score),[2],0.013
same,glycan array binding signal (z-score),[3],0.319
same,glycan array binding signal (z-score),[4],0.263
same,glycan array binding signal (z-score),[5],1.59
same,glycan array binding signal (z-score),[6],0.433
same,glycan array binding signal (z-score),[7],-0.266
same,glycan array binding signal (z-score),[8],1.57
same,glycan array binding signal (z-score),[9],0.799
same,glycan array binding signal (z-score),[10],1.08
same,glycan array binding signal (z-score),[11],-0.022
same,glycan array binding signal (z-score),[12],2.52
same,glycan array binding signal (z-score),[13],1.3
same,glycan array binding signal (z-score),[14],0.044
same,glycan array binding signal (z-score),[15],-0.155
same,glycan array binding signal (z-score),[16],1.12
same,glycan array binding signal (z-score),[17],0.085
same,glycan array binding signal (z-score),[18],0.446
same,glycan array binding signal (z-score),[19],-0.179
same,glycan array binding signal (z-score),[20],0.078
same,glycan array binding signal (z-score),[21],0.825
same,glycan array binding signal (z-score),[22],-0.003
same,glycan array binding signal (z-score),[23],-0.014
same,glycan array binding signal (z-score),[24],-0.479
same,glycan array binding signal (z-score),[25],-1.08
same,glycan array binding signal (z-score),[26],0.206
same,glycan array binding signal (z-score),[27],-0.049
same,glycan array binding signal (z-score),[28],0.824
same,glycan array binding signal (z-score),[29],0.338
same,glycan array binding signal (z-score),[30],-0.483
same,glycan array binding signal (z-score),[31],-0.937
same,glycan array binding signal (z-score),[32],-1.06
same,glycan array binding signal (z-score),[33],-0.971
same,glycan array binding signal (z-score),[34],-0.239
same,glycan array binding signal (z-score),[35],-0.559
same,glycan array binding signal (z-score),[36],0.216
same,glycan array binding signal (z-score),[37],1.61

# Shown bar-delimited: entries from further up.
binder | measurement | setting | value
ERGIC1-EDTA (Homo sapiens), Q969X5 (protein) MKFLVNVALVFMVVYISYIYAAAHMHHHHHHDYDIPTTENLYFQGSEVVNELYVDDPDKDSGGKIDVSLNISLPNLHCELVGLDIQDEMGRHEVGHIDNSMKIPLNNGAGCRFEGQFSINKVPGNFHVSTHSATAQPQNPDMTHVIHKLSFGDTLQVQNIHGAFNALGGADRLTSNPLASHDYILKIVPTVYEDKSGKQRYSYQYTVANKEYVAYSHTGRIIPAIWFRYDLSPITVKYTE | glycan array binding signal (z-score) | [36] | 0.216
same | glycan array binding signal (z-score) | [37] | 1.61
